Laboratory results from publication PMC8598058.
Positions count from the first letter of the chain named. Like-named read-outs stand apart in the source and are kept apart here. These are yes or no findings as the source states them, for the method shown. In cells and extracts the contact can be indirect. Here binding means that the protein was enriched with, or labelled near, the bait; the list need not be complete. For part of these data: A no says only that the protein was not detected with the bait. For part of these data: Tags and fused reporters may be left off the sequences shown. Values belong to the molecule of their own block, whether it stands above or below them.

The chains behind the UniProt entries cited, without tags or fusion partners.
UniProt P42771: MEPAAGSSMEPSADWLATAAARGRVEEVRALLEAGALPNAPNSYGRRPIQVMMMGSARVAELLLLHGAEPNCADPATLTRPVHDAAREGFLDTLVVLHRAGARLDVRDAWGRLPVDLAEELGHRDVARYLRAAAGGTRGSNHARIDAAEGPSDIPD
UniProt Q13547: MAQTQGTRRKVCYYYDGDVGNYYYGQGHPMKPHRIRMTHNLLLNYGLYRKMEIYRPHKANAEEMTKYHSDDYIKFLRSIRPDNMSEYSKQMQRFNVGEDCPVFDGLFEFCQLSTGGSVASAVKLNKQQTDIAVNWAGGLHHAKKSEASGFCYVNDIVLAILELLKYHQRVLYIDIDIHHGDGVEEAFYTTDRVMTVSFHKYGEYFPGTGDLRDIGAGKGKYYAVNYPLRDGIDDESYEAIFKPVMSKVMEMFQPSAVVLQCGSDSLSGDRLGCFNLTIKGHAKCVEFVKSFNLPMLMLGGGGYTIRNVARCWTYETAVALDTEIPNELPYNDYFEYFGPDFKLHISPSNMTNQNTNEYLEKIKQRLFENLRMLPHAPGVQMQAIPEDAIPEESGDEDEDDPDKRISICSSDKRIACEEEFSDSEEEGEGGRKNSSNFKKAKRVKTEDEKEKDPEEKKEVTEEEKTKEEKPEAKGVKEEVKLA

Assays:
[1] = target: T1, Halo-tagged BRMS1 wild-type (BRMS1^WT), Breast Cancer Metastasis Suppressor 1; experiment: affinity purification with mass spectrometry; Halo-BRMS1 constructs transfected in HEK293T; lysate (50 mM Tris-HCl pH 7.5, 150 mM NaCl, 1% Triton X-100, 0.1% sodium deoxycholate) incubated overnight at 4°C with Magne HaloTag beads; TEV elution; MudPIT; Halo tag alone as negative control; three replicates a bait; QSPEC and TopS scoring
T1 sequence: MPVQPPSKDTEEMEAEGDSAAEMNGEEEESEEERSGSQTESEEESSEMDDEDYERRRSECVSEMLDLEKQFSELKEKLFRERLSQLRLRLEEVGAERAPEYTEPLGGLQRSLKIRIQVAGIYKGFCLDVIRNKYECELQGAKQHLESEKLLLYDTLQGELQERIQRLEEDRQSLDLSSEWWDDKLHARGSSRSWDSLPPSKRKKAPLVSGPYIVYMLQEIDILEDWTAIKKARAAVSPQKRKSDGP

Halo-tagged BRMS1^S237D [2] = target: T2, Halo-tagged BRMS1^S237D; experiment: as above
T2 sequence: T1 sequence with S237D

[3] = target: T3, SIN3A (human (endogenous in HEK293T, MCF-10A and MDA-MB-231)) (UniProt Q96ST3); experiment: affinity purification with mass spectrometry; co-IP of endogenous SIN3A with a polyclonal antibody from nuclear lysate of MCF-10A cells; gel, in-gel digestion, MALDI-TOF
T3 sequence: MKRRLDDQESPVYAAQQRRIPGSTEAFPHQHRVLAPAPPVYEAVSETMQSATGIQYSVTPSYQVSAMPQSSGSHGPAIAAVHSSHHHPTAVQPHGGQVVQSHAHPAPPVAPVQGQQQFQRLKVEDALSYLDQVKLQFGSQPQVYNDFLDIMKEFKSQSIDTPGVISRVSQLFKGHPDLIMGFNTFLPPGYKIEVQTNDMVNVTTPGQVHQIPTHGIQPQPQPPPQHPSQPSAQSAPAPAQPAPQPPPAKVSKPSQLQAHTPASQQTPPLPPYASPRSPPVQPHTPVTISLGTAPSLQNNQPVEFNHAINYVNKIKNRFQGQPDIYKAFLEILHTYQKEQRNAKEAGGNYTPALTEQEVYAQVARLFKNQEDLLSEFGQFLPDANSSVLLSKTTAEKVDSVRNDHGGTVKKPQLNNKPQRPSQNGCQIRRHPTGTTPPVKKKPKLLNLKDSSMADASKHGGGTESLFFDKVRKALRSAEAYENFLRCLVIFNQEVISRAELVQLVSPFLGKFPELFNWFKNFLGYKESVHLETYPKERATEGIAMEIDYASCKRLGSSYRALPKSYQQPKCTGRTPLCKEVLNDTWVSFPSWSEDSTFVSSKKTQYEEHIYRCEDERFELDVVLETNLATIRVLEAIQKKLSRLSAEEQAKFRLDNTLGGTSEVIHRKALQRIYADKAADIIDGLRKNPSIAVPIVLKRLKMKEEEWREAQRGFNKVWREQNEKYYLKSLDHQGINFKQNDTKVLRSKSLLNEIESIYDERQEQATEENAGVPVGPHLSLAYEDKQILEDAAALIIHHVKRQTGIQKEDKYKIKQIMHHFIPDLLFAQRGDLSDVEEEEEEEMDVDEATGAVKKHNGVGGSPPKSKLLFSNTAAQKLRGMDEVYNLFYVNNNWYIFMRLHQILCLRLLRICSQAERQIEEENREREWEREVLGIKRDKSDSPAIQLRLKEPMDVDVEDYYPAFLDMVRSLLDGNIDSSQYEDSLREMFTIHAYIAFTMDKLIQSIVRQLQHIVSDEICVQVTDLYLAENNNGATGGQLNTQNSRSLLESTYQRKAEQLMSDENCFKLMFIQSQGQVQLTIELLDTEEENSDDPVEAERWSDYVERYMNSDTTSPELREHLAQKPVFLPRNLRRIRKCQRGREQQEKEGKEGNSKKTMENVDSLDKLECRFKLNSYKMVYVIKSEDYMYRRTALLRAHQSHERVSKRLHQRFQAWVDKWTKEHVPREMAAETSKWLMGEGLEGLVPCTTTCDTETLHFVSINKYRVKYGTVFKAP

[4] = target: T3, SIN3A (human (endogenous in HEK293T, MCF-10A and MDA-MB-231)); experiment: condition: only in nuclear lysate of MDA-MB-231 cells; affinity purification with mass spectrometry; co-IP of endogenous SIN3A with a polyclonal antibody from nuclear lysate of MDA-MB-231 cells; gel, in-gel digestion, MALDI-TOF
[5] = target: T1, Halo-tagged BRMS1 wild-type (BRMS1^WT), Breast Cancer Metastasis Suppressor 1; experiment: affinity purification with mass spectrometry; Halo-BRMS1 constructs transfected in HEK293T; lysate (50 mM Tris-HCl pH 7.5, 150 mM NaCl, 1% Triton X-100, 0.1% sodium deoxycholate) incubated overnight at 4°C with Magne HaloTag beads; TEV elution; MudPIT; Halo tag alone as negative control; three replicates a bait; QSPEC and TopS scoring; remark: listed apart in the source
Halo-tagged BRMS1^S237D [6] = target: T2, Halo-tagged BRMS1^S237D; experiment: as above; remark: listed apart in the source

binding [1]: binds
Molecule: Cyclin Dependent Kinase Inhibitor 2A (CDKN2A) (from UniProt P42771 1-156)

binding [1]: binds
binding (Halo-tagged BRMS1^S237D [2]): binds
Molecule: HDAC1 (from UniProt Q13547 1-482)

binding [3]: binds
binding [4]: no binding
B1: SAP30 (protein, UniProt O75446 1-220)
chain: MNGFTPDEMSRGGDAAAAVAAVVAAAAAAASAGNGTGAGTGAEVPGAGAVSAAGPPGAAGPGPGQLCCLREDGERCGRAAGNASFSKRIQKSISQKKVKIELDKSARHLYICDYHKNLIQSVRNRRKRKGSDDDGGDSPVQDIDTPEVDLYQLQVNTLRRYKRHFKLPTRPGLNKAQLVEIVGCHFRSIPVNEKDTLTYFIYSVKNDKNKSDLKVDSGVH

binding [3]: binds
binding [4]: no binding
B2: BRMS1L (protein, UniProt Q5PSV4 1-323)
chain: MPVHSRGDKKETNHHDEMEVDYAENEGSSSEDEDTESSSVSEDGDSSEMDDEDCERRRMECLDEMSNLEKQFTDLKDQLYKERLSQVDAKLQEVIAGKAPEYLEPLATLQENMQIRTKVAGIYRELCLESVKNKYECEIQASRQHCESEKLLLYDTVQSELEEKIRRLEEDRHSIDITSELWNDELQSRKKRKDPFSPDKKKPVVVSGPYIVYMLQDLDILEDWTTIRKAMATLGPHRVKTEPPVKLEKHLHSARSEEGRLYYDGEWYIRGQTICIDKKDECPTSAVITTINHDEVWFKRPDGSKSKLYISQLQKGKYSIKHS

binding [3]: binds
binding [4]: no binding
B3: SIN3B (protein, UniProt O75182 1-1162)
chain: MAHAGGGSGGSGAGGPAGRGLSGARWGRSGSAGHEKLPVHVEDALTYLDQVKIRFGSDPATYNGFLEIMKEFKSQSIDTPGVIRRVSQLFHEHPDLIVGFNAFLPLGYRIDIPKNGKLNIQSPLTSQENSHNHGDGAEDFKQQVPYKEDKPQVPLESDSVEFNNAISYVNKIKTRFLDHPEIYRSFLEILHTYQKEQLNTRGRPFRGMSEEEVFTEVANLFRGQEDLLSEFGQFLPEAKRSLFTGNGPCEMHSVQKNEHDKTPEHSRKRSRPSLLRPVSAPAKKKMKLRGTKDLSIAAVGKYGTLQEFSFFDKVRRVLKSQEVYENFLRCIALFNQELVSGSELLQLVSPFLGKFPELFAQFKSFLGVKELSFAPPMSDRSGDGISREIDYASCKRIGSSYRALPKTYQQPKCSGRTAICKELDHWTLLQGSWTDDYCMSKFKNTCWIPGYSAGVLNDTWVSFPSWSEDSTFVSSKKTPYEEQLHRCEDERFELDVVLETNLATIRVLESVQKKLSRMAPEDQEKFRLDDSLGGTSEVIQRRAIYRIYGDKAPEIIESLKKNPVTAVPVVLKRLKAKEEEWREAQQGFNKIWREQYEKAYLKSLDHQAVNFKQNDTKALRSKSLLNEIESVYDEHQEQHSEGRSAPSSEPHLIFVYEDRQILEDAAALISYYVKRQPAIQKEDQGTIHQLLHQFVPSLFFSQQLDLGASEESADEDRDSPQGQTTDPSERKKPAPGPHSSPPEEKGAFGDAPATEQPPLPPPAPHKPLDDVYSLFFANNNWYFFLRLHQTLCSRLLKIYRQAQKQLLEYRTEKEREKLLCEGRREKGSDPAMELRLKQPSEVELEEYYPAFLDMVRSLLEGSIDPTQYEDTLREMFTIHAYVGFTMDKLVQNIARQLHHLVSDDVCLKVVELYLNEKKRGAAGGNLSSRCVRAARETSYQWKAERCMADENCFKVMFLQRKGQVIMTIELLDTEEAQTEDPVEVQHLARYVEQYVGTEGASSSPTEGFLLKPVFLQRNLKKFRRRWQSEQARALRGEARSSWKRLVGVESACDVDCRFKLSTHKMVFIVNSEDYMYRRGTLCRAKQVQPLVLLRHHQHFEEWHSRWLEDNVTVEAASLVQDWLMGEEDEDMVPCKTLCETVHVHGLPVTRYRVQYSRRPASP

binding [5]: binds
B4: DNA Polymerase Epsilon Subunit 2 (POLE2) (protein, UniProt P56282 1-527)
chain: MAPERLRSRALSAFKLRGLLLRGEAIKYLTEALQSISELELEDKLEKIINAVEKQPLSSNMIERSVVEAAVQECSQSVDETIEHVFNIIGAFDIPRFVYNSERKKFLPLLMTNHPAPNLFGTPRDKAEMFRERYTILHQRTHRHELFTPPVIGSHPDESGSKFQLKTIETLLGSTTKIGDAIVLGMITQLKEGKFFLEDPTGTVQLDLSKAQFHSGLYTEACFVLAEGWFEDQVFHVNAFGFPPTEPSSTTRAYYGNINFFGGPSNTSVKTSAKLKQLEEENKDAMFVFLSDVWLDQVEVLEKLRIMFAGYSPAPPTCFILCGNFSSAPYGKNQVQALKDSLKTLADIICEYPDIHQSSRFVFVPGPEDPGFGSILPRPPLAESITNEFRQRVPFSVFTTNPCRIQYCTQEITVFREDLVNKMCRNCVRFPSSNLAIPNHFVKTILSQGHLTPLPLYVCPVYWAYDYALRVYPVPDLLVIADKYDPFTTTNTECLCINPGSFPRSGFSFKVFYPSNKTVEDSKLQGF

binding (Halo-tagged BRMS1^S237D [6]): binds
B5: SUDS3 (protein, UniProt Q9H7L9 1-328)
chain: MSAAGLLAPAPAQAGAPPAPEYYPEEDEELESAEDDERSCRGRESDEDTEDASETDLAKHDEEDYVEMKEQMYQDKLASLKRQLQQLQEGTLQEYQKRMKKLDQQYKERIRNAELFLQLETEQVERNYIKEKKAAVKEFEDKKVELKENLIAELEEKKKMIENEKLTMELTGDSMEVKPIMTRKLRRRPNDPVPIPDKRRKPAPAQLNYLLTDEQIMEDLRTLNKLKSPKRPASPSSPEHLPATPAESPAQRFEARIEDGKLYYDKRWYHKSQAIYLESKDNQKLSCVISSVGANEIWVRKTSDSTKMRIYLGQLQRGLFVIRRRSAA

binding [5]: binds
B6: TRMT2A (TRNA Methyltransferase 2 Homolog A) (protein, UniProt Q8IZ69 1-625)
chain: MSENLDNEGPKPMESCGQESSSALSCPTVSVPPAAPAALEEVEKEGAGAATGPGPQPGLYSYIRDDLFTSEIFKLELQNVPRHASFSDVRRFLGRFGLQPHKTKLFGQPPCAFVTFRSAAERDKALRVLHGALWKGRPLSVRLARPKADPMARRRRQEGESEPPVTRVADVVTPLWTVPYAEQLERKQLECEQVLQKLAKEIGSTNRALLPWLLEQRHKHNKACCPLEGVRPSPQQTEYRNKCEFLVGVGVDGEDNTVGCRLGKYKGGTCAVAAPFDTVHIPEATKQVVKAFQEFIRSTPYSAYDPETYTGHWKQLTVRTSRRHQAMAIAYFHPQKLSPEELAELKTSLAQHFTAGPGRASGVTCLYFVEEGQRKTPSQEGLPLEHVAGDRCIHEDLLGLTFRISPHAFFQVNTPAAEVLYTVIQDWAQLDAGSMVLDVCCGTGTIGLALARKVKRVIGVELCPEAVEDARVNAQDNELSNVEFHCGRAEDLVPTLVSRLASQHLVAILDPPRAGLHSKVILAIRRAKNLRRLLYVSCNPRAAMGNFVDLCRAPSNRVKGIPFRPVKAVAVDLFPQTPHCEMLILFERVEHPNGTGVLGPHSPPAQPTPGPPDNTLQETGTFPSS
